Assay results as given in paper PMC9933293.
These are yes or no findings as the source states them, for the method shown. Some entries that bind do so weakly or less than the wild type. For part of these data: Sequences can lack the tags named with a protein.

By UniProt entry, the sequences of proteins in these tests, tags left out.
UniProt Q9UUK2: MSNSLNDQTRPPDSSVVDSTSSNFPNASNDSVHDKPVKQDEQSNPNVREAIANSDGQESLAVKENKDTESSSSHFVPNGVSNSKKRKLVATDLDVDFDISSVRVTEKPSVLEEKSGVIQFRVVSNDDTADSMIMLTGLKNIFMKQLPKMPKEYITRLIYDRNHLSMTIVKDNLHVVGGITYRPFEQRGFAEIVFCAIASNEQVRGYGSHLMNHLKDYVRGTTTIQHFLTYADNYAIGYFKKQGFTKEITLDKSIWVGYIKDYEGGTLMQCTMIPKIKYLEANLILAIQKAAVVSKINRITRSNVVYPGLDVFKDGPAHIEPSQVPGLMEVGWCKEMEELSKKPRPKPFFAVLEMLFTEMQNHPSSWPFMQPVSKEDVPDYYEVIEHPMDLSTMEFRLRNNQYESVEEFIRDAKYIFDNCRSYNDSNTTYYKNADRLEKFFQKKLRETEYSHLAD

Legend:
Assay in all cases: two-hybrid; Gal4-based; pGBKT7 and pGADT7 constructs co-transformed into S. cerevisiae PJ69-4a; growth on SD -Leu, -Trp, -His with 3-aminotriazole (0.5 mM AT; 10 mM AT for the self-activating Gal4BD-Smc5 CC arm) at 28 °C
[1] = molecular target: T1, Gal4BD-Ada2 (full-length) (S. pombe) (UniProt Q9P7J7)
T1 sequence: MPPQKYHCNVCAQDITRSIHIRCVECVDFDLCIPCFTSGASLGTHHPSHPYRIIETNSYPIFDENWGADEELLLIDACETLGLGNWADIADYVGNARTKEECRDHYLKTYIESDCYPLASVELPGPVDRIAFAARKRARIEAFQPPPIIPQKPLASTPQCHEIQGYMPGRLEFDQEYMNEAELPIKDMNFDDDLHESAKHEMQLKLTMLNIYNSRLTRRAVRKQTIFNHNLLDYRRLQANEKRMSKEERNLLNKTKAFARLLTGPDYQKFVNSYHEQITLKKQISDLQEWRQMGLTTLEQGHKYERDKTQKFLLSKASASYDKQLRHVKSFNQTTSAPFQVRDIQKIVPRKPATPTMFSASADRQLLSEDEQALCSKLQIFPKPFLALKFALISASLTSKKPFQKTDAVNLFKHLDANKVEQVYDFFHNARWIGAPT

[2] = molecular target: Gal4BD-Gcn5 (full-length) (S. pombe) (UniProt Q9UUK2)
[3] = molecular target: T2, Gal4BD-Nse2 (aa2-178) (S. pombe) (UniProt Q4PIR3)
T2 sequence: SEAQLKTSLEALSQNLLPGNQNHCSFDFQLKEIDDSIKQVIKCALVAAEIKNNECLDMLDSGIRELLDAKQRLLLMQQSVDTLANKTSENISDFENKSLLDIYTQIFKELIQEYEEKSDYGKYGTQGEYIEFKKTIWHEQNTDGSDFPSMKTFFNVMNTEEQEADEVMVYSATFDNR

[4] = molecular target: T3, Gal4BD-Smc5 CC arm (aa170-225 + 837-910) (S. pombe) (UniProt O13710)
T3 sequence: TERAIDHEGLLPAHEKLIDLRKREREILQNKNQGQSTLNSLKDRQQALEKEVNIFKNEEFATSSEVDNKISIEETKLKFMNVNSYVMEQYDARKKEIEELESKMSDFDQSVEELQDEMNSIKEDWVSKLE

B1: Nse3 subunit (two-hybrid construct, limits not told for this experiment) (protein, UniProt Q9Y7U4 1-328)
chain: MSQLSFTGKSSSKGRSRLTQEVRPTASQIIADEEASDLDEYEEDLEGSGNEDDFGPSMSRSSRGRKRRKGDPLELQSQFEERNETDAINFQLLVRNVVRYAICSQTSHNTITRKDIVQKAFPEGTSRNLFQSVFEEADRQLQLSFGFRLVAVTQSNRKKDMAVSQLRRPATSNANSSNLHRYWVLRSTLPMELQKDSRLIVDSVLDTAYYGFLMTVIAFIAVSHCSVGHSELQSFLQELLTEEETTPLHLDITRSLSLLVRQGYLDRVKDDTHNQFVYYIGSRAVTEISIEGLKSFVTEFFPDSDIDMDALLTEYRQEYQNQSSSSAA
binding [1]: binds | binding [2]: binds

B2: Gal4AD-Nse3 (aa1-190) (domain or fragment, UniProt Q9Y7U4 1-190)
chain: MSQLSFTGKSSSKGRSRLTQEVRPTASQIIADEEASDLDEYEEDLEGSGNEDDFGPSMSRSSRGRKRRKGDPLELQSQFEERNETDAINFQLLVRNVVRYAICSQTSHNTITRKDIVQKAFPEGTSRNLFQSVFEEADRQLQLSFGFRLVAVTQSNRKKDMAVSQLRRPATSNANSSNLHRYWVLRSTLP
binding [2]: binds

B3: Gal4AD-Nse3 (aa200-307) (domain or fragment, UniProt Q9Y7U4 200-307)
chain: IVDSVLDTAYYGFLMTVIAFIAVSHCSVGHSELQSFLQELLTEEETTPLHLDITRSLSLLVRQGYLDRVKDDTHNQFVYYIGSRAVTEISIEGLKSFVTEFFPDSDID
binding [1]: binds

B4: Gal4AD-Ada2 (full-length) (protein, UniProt Q9P7J7 1-437)
chain: MPPQKYHCNVCAQDITRSIHIRCVECVDFDLCIPCFTSGASLGTHHPSHPYRIIETNSYPIFDENWGADEELLLIDACETLGLGNWADIADYVGNARTKEECRDHYLKTYIESDCYPLASVELPGPVDRIAFAARKRARIEAFQPPPIIPQKPLASTPQCHEIQGYMPGRLEFDQEYMNEAELPIKDMNFDDDLHESAKHEMQLKLTMLNIYNSRLTRRAVRKQTIFNHNLLDYRRLQANEKRMSKEERNLLNKTKAFARLLTGPDYQKFVNSYHEQITLKKQISDLQEWRQMGLTTLEQGHKYERDKTQKFLLSKASASYDKQLRHVKSFNQTTSAPFQVRDIQKIVPRKPATPTMFSASADRQLLSEDEQALCSKLQIFPKPFLALKFALISASLTSKKPFQKTDAVNLFKHLDANKVEQVYDFFHNARWIGAPT
binding [3]: binds | binding [4]: binds
